Data published in patent US20260055441A1, “A PCR-ELISA ANALOGOUS ANTIBODY-FREE METHOD FOR DETECTING A TARGET NUCLEIC ACID IN A SAMPLE” (UNIVERSITÄT HEIDELBERG, priority 2022, published 2026).
Some of these results come from one statement about several compounds together.

Molecular target: T1, latent papain P13 (Carica papaya, UniProt P00784)
T1 construct: purchased Sigma Aldrich (Munich, Germany); host or cells: Papaya latex (natural source)
T1 sequence (P00784 134-345): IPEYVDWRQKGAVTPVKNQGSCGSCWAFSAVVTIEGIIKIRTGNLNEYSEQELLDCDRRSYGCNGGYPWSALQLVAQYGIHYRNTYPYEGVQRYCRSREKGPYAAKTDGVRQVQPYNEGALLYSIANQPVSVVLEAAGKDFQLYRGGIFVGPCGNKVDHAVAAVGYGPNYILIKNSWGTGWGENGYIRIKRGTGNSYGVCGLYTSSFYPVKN
Experiment: Latent papain reactivation assay with thiol activators at 10 μM, rates normalized to 10 μM cysteine (FIG. 18)
Assay type: biochemical
Settings: activator 10 μM, latent papain 1 nM, Z-Phe-Arg-AMC 2 μM, pH 7
Method: All following described fluorometric assays (Examples 1-3) are based on the reaction of reversibly inactivated papain (latent papain) with an activator containing either sulfur or selenium (with the exception of TCEP). Different latent papain forms, buffer compositions and activators in various concentrations were compared. Papain was hereby transferred in buffer (standard well buffer consisted of 0.1 M phosphate pH 7, 4 mM EDTA, 0.01% Brij35 and if activators contained diselenides, 1 μM TCEP) mixed with activator and substrate inside 96 well plates (without prior washing of the plates). After reactivation, active papain hydrolyses the substrate Z-Phe-Arg-AMC (2 μM) and the resulting fluorescence was tracked every minute for 2 h. The slopes of the corresponding curves were calculated for the linear portion within the first 30 minutes and the resulting reaction rates were directly compared. […]
Several thiol compounds and cysteine containing peptide activators (see Example 4.1) were compared for their potential to reactivate latent papain. […] In order to normalize the observed reaction rates between assays, a 10 μM cysteine sample was additionally measured in every assay and reaction rates of the examined thiols were divided through the reaction rates produced by the 10 μM cysteine standard. […]

| SMILES | reaction rate compared to L-cysteine |
| --- | --- |
| CC(C)(C)OC(=O)N[C@@H](CS)C(=O)O [N-Boc-L-cysteine] | less than 10% |
| CC(=O)N[C@@H](CS)C(=O)O [N-acetyl-L-cysteine, N-Acetyl-L-cysteine] | less than 10% |
